PubChem BioAssay AID504793 – Drosophila RNAi Screening Center, 2011
Screen: 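Knock-downs allowing continued mitosis even though DNA is damaged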 (primary screen). Cells: Drosophila S2R+ cells. Knock-down reagent: long dsRNA against Drosophila genes, about 0.25 µg dsRNA per well. Timing: 4 days of dsRNA, then 4 hours of drug before read-out. Treatment: doxorubicin 0.5 µM for 4 hours to cause double-strand breaks, in cells also given a low, harmless dose of dsRNA against nbs to sensitise the assay. Measurement: 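Mitotic index as the number of phospho-histone H3-positive cells in each well following doxorubicin, given as raw counts without normalisation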. Direction: mitotic cells: higher = more cells in mitosis, weaker G2 arrest. Active means: 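Genes are called active only when high mitotic counts were reproduced with independent dsRNAs and mitosis was checked for delay without damage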. Meaning of the calls: active = confirmed in follow-up tests; inactive = not confirmed.
The deposit covers about 23,000 reagents; below is an unselected part of those with a known target gene and a result. Of all reagents, 62 (0.27%) are marked active. 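Calls come from follow-up tests whose scores are not deposited, so confirmed genes may have low counts here; counts are not normalised per plate.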 The raw values are shown without normalisation. No sequences are given here.

CG17726 [DRSC15255] → mitotic cells, replicate 1 = 15; activity call = inactive
CG30109 [DRSC05675] → mitotic cells, replicate 1 = 4; activity call = inactive
Psi [DRSC07519] → mitotic cells, replicate 1 = 6; activity call = inactive
Psi [DRSC25220] → mitotic cells, replicate 1 = 4; activity call = inactive
CG4239 [DRSC19885] → mitotic cells, replicate 1 = 7; activity call = inactive
CG42296 [DRSC00394] → mitotic cells, replicate 1 = 9; activity call = inactive
Syn2 [DRSC06902] → mitotic cells, replicate 1 = 5; activity call = inactive
CG11811 [DRSC09862] → mitotic cells, replicate 1 = 4; activity call = inactive
sgl [DRSC21431] → mitotic cells, replicate 1 = 13; activity call = inactive
sgl [DRSC29308] → mitotic cells, replicate 1 = 8; activity call = inactive
CG30026 [DRSC05276] → mitotic cells, replicate 1 = 11; activity call = inactive
CG30026 [DRSC29320] → mitotic cells, replicate 1 = 4; activity call = inactive
tna [DRSC23236] → mitotic cells, replicate 1 = 9; activity call = inactive
tna [DRSC29530] → mitotic cells, replicate 1 = 8; activity call = inactive
Ubc84D [DRSC12610] → mitotic cells, replicate 1 = 4; activity call = inactive
Ubc84D [DRSC25384] → mitotic cells, replicate 1 = 11; activity call = inactive
CG17364 [DRSC10269] → mitotic cells, replicate 1 = 5; activity call = inactive
CG17364 [DRSC10270] → mitotic cells, replicate 1 = 8; activity call = inactive
CG17364 [DRSC22689] → mitotic cells, replicate 1 = 11; activity call = inactive
CG17364 [DRSC29363] → mitotic cells, replicate 1 = 4; activity call = inactive
CG17821 [DRSC06696] → mitotic cells, replicate 1 = 9; activity call = inactive
Or59b [DRSC04632] → mitotic cells, replicate 1 = 6; activity call = inactive
Irc [DRSC16454] → mitotic cells, replicate 1 = 3; activity call = inactive
Irc [DRSC28100] → mitotic cells, replicate 1 = 12; activity call = inactive
CG14450 [DRSC11707] → mitotic cells, replicate 1 = 3; activity call = inactive
CG14450 [DRSC29442] → mitotic cells, replicate 1 = 8; activity call = inactive
CG7366 [DRSC10825] → mitotic cells, replicate 1 = 10; activity call = inactive
CG7366 [DRSC29988] → mitotic cells, replicate 1 = 13; activity call = inactive
CG34447 [DRSC00741] → mitotic cells, replicate 1 = 4; activity call = inactive
AdipoR [DRSC15767] → mitotic cells, replicate 1 = 7; activity call = inactive
Surf1 [DRSC11295] → mitotic cells, replicate 1 = 2; activity call = inactive
Surf1 [DRSC11394] → mitotic cells, replicate 1 = 3; activity call = inactive
ssp5 [DRSC14955] → mitotic cells, replicate 1 = 11; activity call = inactive
Prp40 [DRSC00612] → mitotic cells, replicate 1 = 5; activity call = inactive
Pdha [DRSC18413] → mitotic cells, replicate 1 = 25; activity call = inactive
Pdha [DRSC27138] → mitotic cells, replicate 1 = 16; activity call = inactive
CG5246 [DRSC15751] → mitotic cells, replicate 1 = 8; activity call = inactive
CG5246 [DRSC30005] → mitotic cells, replicate 1 = 11; activity call = inactive
CG9664 [DRSC00725] → mitotic cells, replicate 1 = 3; activity call = inactive
CG6041 [DRSC18396] → mitotic cells, replicate 1 = 12; activity call = inactive
CG6041 [DRSC24234] → mitotic cells, replicate 1 = 14; activity call = inactive
Rab40 [DRSC19820] → mitotic cells, replicate 1 = 17; activity call = inactive
Jon99Ciii [DRSC16859] → mitotic cells, replicate 1 = 9; activity call = inactive
